Taken from: PubChem BioAssay AID504804 (Drosophila RNAi Screening Center, 2011)
Test: 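Knock-downs shielding fly cells from apoptosis caused by DNA damage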 (primary screen). Cell system: Drosophila Kc cells. Knock-down reagent: long dsRNA against Drosophila genes, 0.5 µg dsRNA per well. Time to read-out: 96 h (48 h knock-down, then 48 h drug). Treatment: doxorubicin 5 µg/ml for 48 h, added 48 h after dsRNA. Measured: 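Viability measured as cellular ATP by luminescence after 48 h knock-down then 48 h doxorubicin at 5 µg/ml; unnormalised plate counts for each replicate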. Direction: raw ATP luminescence: higher = more viable cells, protection from doxorubicin. Hit rule: 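z-score of 2 or more over plate mean in both duplicates, retained only when retests and separate dsRNAs confirm the protection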.
The screen tested about 19,000 reagents; shown is a random part of those with a known target gene and a result. Over the whole deposit, 47 (0.25%) got an active call. 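Signals are raw, not normalised; exact z-scores behind calls not deposited; actives needed confirmation, so some wells reaching 2 SD are inactive.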 Unmarked entries are inactive. A plus sign joins genes that one reagent is predicted to hit.

gene | amplicon | raw ATP luminescence, replicate 1 | raw ATP luminescence, replicate 2
Cht7 + tRNA:Cys-GCA-1-4 + tRNA:Lys-CTT-1-13 | DRSC08021 | 1.23e5 | 1.23e5
cN-IIIB (GeneID 37875) | DRSC04359 | 69793 | 49927
HP1b (GeneID 31834) | DRSC18418 | 3.78e5 | 3.24e5
CG33178 (GeneID 318913) | DRSC19950 | 3.84e5 | 3.44e5
lectin-37Da (GeneID 3346222) | DRSC03278 | 68207 | 67880
Mad1 (GeneID 35954) | DRSC07561 | 51710 | 43420
CG13613 (GeneID 42910) | DRSC14616 | 73870 | 87250
hoka (GeneID 38588) | DRSC08313 | 81923 | 1.02e5
CG33191 + Pif1B | DRSC12706 | 73357 | 61697
kek3 (GeneID 34912) | DRSC03553 | 74820 | 73950
Pgant6 (GeneID 38346) | DRSC08552 | 83967 | 37100
CG17292 (GeneID 34152) | DRSC02594 | 1.19e5 | 92610
cype (GeneID 46040) | DRSC02356 | 23900 | 23460
Grl36b (GeneID 318940) | DRSC01627 | 2.60e5 | 2.57e5
Exo84 (GeneID 43163) | DRSC15965 | 45420 | 48970
CG3713 (GeneID 50365) | DRSC18648 | 58100 | 57910
CLIP-190 (GeneID 35042) | DRSC03283 | 94463 | 85173
sima (GeneID 43580) | DRSC17055 | 20140 | 27260
CG9691 (GeneID 31923) | DRSC18441 | 3.50e5 | 3.47e5
CG15673 (GeneID 37459) | DRSC04263 | 56307 | 60573
CCKLR-17D3 (GeneID 32864) | DRSC20015 | 3.35e5 | 2.41e5
CCKLR-17D3 (GeneID 32864) | DRSC20017 | 2.53e5 | 2.07e5
ppk8 (GeneID 318213) | DRSC17269 | 2.48e5 | 2.41e5
viaf (GeneID 39364) | DRSC10326 | 37980 | 36763
per (GeneID 31251) | DRSC18818 | 49160 | 61620
Coq6 (GeneID 33777) | DRSC03040 | 1.12e5 | 64577
fal (GeneID 43927) | DRSC11087 | 33597 | 26837

Part of the list above in another layout.
gene	amplicon	raw ATP luminescence, replicate 1	raw ATP luminescence, replicate 2
Exo84 (GeneID 43163)	DRSC15965	45420	48970
CG3713 (GeneID 50365)	DRSC18648	58100	57910
CLIP-190 (GeneID 35042)	DRSC03283	94463	85173
sima (GeneID 43580)	DRSC17055	20140	27260
CG9691 (GeneID 31923)	DRSC18441	3.50e5	3.47e5

Next entries:
gene | amplicon | raw ATP luminescence, replicate 1 | raw ATP luminescence, replicate 2
SIDL (GeneID 41833) | DRSC16077 | 46827 | 22990
Syx18 (GeneID 42933) | DRSC14628 | 47923 | 49300
mRpL55 (GeneID 42290) | DRSC14764 | 35090 | 39210
Sgs5bis (GeneID 42113) | DRSC16263 | 1.00e5 | 1.04e5
larp (GeneID 53567) | DRSC14728 | 50670 | 35790
larp (GeneID 53567) | DRSC16984 | 69460 | 50640
CaBP1 (GeneID 34976) | DRSC01984 | 89600 | 65603
mago (GeneID 37402) | DRSC04703 | 32167 | 40740
CecA2 (GeneID 43597) | DRSC16604 | 30710 | 34390
Ntl (GeneID 34046) | DRSC03003 | 1.84e5 | 2.29e5
CG4733 (GeneID 42368) | DRSC15634 | 57570 | 70860
Lcp65APsi (GeneID 3771993) | DRSC08795 | 1.24e5 | 97663
Lcp65APsi (GeneID 3771993) | DRSC10342 | 84780 | 73450
CG31407 (GeneID 318716) | DRSC12761 | 65843 | 58400
CG34028 (GeneID 3885648) | DRSC17614 | 2.02e5 | 1.49e5
senju (GeneID 33734) | DRSC02366 | 26937 | 38257
Osi10b (GeneID 40764) | DRSC12279 | 64597 | 79307
Sgs5 (GeneID 42114) | DRSC16862 | 98200 | 1.10e5
CG12661 (GeneID 31822) | DRSC17864 | 33500 | 37470
CG9577 (GeneID 33016) | DRSC20693 | 3.46e5 | 3.60e5
CG2444 (GeneID 32121) | DRSC19846 | 3.91e5 | 4.07e5
pkaap (GeneID 34957) | DRSC01925 | 65160 | 74523
CG34005 (GeneID 3885597) | DRSC05700 | 53777 | 56613
CG9372 (GeneID 40137) | DRSC11068 | 68287 | 76433
CG11425 (GeneID 40472) | DRSC11657 | 63037 | 58970
GlcAT-S (GeneID 34282) | DRSC02731 | 1.01e5 | 60243
Ugt37C2 (GeneID 53513) | DRSC02247 | 64747 | 70313
Cyp4p3 (GeneID 35948) | DRSC07374 | 47333 | 65817
HemK1 (GeneID 33902) | DRSC03253 | 79063 | 69463
Alp7 (GeneID 37538) | DRSC04355 | 38260 | 44123
